Data: article PMC3820798
No constants are given. Whether binding was seen depends on the method and setting. Binding seen in cells or lysates may run through a third protein. Some entries that bind do so weakly or less than the wild type.

Chains of the proteins cited; added tags and fusions are not shown.
UniProt O88379: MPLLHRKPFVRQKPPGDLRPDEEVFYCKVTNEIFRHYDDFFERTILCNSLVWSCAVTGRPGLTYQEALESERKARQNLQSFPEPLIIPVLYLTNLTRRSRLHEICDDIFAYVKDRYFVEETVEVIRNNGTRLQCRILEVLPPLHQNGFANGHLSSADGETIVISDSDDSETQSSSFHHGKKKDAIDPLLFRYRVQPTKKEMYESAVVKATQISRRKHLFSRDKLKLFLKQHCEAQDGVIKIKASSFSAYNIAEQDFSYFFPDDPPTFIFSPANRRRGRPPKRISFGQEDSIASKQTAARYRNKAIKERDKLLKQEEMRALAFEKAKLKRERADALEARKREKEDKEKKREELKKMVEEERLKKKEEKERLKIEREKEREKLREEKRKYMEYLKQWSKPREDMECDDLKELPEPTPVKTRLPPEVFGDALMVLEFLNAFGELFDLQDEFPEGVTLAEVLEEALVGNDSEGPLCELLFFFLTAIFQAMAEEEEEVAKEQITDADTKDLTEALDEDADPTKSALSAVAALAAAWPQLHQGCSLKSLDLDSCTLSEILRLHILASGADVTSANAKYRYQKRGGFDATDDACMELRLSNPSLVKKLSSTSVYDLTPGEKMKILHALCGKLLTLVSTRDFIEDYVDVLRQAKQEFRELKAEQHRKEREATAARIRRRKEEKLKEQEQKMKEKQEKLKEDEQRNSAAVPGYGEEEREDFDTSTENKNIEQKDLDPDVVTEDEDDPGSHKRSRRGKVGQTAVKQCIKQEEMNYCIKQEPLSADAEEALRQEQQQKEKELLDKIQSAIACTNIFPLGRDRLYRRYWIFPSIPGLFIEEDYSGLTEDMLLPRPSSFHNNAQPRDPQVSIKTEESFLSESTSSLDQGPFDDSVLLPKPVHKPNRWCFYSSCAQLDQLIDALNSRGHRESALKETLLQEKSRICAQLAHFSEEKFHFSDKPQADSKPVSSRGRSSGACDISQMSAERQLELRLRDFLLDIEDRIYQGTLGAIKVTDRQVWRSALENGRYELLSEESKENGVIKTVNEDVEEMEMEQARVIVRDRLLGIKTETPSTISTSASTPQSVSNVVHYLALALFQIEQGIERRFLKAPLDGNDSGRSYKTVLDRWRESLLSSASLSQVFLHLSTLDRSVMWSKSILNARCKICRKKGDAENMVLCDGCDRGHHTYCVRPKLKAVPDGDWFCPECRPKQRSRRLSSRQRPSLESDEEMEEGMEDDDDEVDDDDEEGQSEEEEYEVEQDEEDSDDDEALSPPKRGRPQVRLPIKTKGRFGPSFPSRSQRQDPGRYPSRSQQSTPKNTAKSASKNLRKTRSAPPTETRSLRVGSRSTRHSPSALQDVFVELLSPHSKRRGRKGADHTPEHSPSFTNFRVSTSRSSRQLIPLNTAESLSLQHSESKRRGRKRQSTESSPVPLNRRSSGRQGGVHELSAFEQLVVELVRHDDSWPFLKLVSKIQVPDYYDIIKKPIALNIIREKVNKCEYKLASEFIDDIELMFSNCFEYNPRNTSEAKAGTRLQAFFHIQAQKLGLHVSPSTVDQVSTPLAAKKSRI
UniProt Q91ZW3: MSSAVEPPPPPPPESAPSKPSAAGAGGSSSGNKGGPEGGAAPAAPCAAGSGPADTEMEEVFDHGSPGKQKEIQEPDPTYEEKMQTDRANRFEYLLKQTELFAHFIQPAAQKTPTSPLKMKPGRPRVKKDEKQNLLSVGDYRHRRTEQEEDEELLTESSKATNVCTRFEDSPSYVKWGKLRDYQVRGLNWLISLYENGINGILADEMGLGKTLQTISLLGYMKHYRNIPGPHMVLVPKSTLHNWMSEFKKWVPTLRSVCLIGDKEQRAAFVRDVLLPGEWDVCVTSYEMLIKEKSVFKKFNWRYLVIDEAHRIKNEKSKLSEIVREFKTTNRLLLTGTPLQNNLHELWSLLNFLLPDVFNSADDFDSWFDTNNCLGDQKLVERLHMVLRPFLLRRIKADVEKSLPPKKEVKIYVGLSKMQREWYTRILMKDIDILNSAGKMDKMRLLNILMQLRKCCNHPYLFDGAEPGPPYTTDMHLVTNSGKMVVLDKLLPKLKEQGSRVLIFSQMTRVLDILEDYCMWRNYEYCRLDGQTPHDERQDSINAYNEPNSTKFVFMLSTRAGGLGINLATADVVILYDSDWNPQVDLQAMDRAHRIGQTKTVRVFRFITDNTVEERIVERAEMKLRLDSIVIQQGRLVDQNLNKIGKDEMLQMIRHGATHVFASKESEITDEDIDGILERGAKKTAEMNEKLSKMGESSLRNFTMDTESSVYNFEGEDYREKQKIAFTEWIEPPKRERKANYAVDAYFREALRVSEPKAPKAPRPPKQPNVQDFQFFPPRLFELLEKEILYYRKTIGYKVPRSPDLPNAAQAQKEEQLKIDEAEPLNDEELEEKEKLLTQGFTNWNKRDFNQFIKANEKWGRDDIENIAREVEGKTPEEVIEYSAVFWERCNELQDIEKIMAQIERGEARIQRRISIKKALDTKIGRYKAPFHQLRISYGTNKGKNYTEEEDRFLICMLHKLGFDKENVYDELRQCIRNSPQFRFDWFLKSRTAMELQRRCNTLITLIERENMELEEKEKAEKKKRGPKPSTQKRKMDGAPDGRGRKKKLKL

Tests used:
Assay in all cases: co-IP; wild-type adult mouse whole testis lysate; hypotonic lysis, freeze/thaw, benzonase, NaCl raised to 500 mM then reduced to 150 mM; antibody overnight, protein-G beads, washed three times with PBS; immunoblot
[1] = target: BAZ1A (mouse (endogenous in testis)) (UniProt O88379)
[2] = target: SNF2H (mouse (endogenous in testis)) (UniProt Q91ZW3)
[3] = target: T1, CHRAC17 (mouse (endogenous in testis)) (UniProt Q9JKP7)
T1 sequence: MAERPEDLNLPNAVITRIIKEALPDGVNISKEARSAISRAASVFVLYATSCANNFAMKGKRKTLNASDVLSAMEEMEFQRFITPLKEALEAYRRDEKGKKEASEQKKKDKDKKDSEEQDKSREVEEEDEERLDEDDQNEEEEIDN

Substance	binding [1]	binding [2]	binding [3]
SNF2H (from UniProt Q91ZW3 1-1051)	binds	–	–
BAZ1A (from UniProt O88379 1-1555)	–	binds	binds
